# In all, about 33,000 sequences were measured (“E-score (-0.5 to 0.5)”: median about -0.0059, highest 2% from about 0.26 on). This is one part of the list.
# Biological target: T1, Cin5 (UniProt P40917)
# T1 sequence: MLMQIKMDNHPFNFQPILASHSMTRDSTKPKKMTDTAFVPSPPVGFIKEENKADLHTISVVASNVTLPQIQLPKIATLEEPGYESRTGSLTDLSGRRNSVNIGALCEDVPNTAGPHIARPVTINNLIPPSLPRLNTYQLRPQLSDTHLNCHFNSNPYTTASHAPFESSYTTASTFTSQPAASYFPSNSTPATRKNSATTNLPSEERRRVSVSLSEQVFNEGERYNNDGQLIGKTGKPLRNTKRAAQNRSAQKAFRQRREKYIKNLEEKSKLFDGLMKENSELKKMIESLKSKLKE
# Assay: PBM E-score (8-mer binding enrichment) (E-score (-0.5 to 0.5)); higher = stronger / more preferred TF binding
# Conditions: protein concentration: 100 nM; construct: GST-full length
# In short: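 Masliner-normalised scans of fluorescent anti-GST signal were the basis for scoring. That signal came from GST-tagged yeast transcription factors applied at about 100-200 nM to double-stranded universal all-10-mer Agilent arrays on fresh or once-stripped slides. Each ungapped eight-base word, pooled with its reverse complement, received an E-score from the Universal PBM Analysis Suite.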
row,Sequence,PBM E-score
1,GTCTTCTA,-0.0724
2,CGCTTTGC,0.0898
3,AGGCGCAT,-0.04
4,AGTCACGG,-0.0815
5,CTAATTCC,0.05
6,CACACGCC,-0.0493
7,ATTTAAAA,0.115
8,ATTGTGAC,0.0953
9,GTCAAGAA,0.133
10,GGGACCTA,-0.0211
11,CGCACACG,-0.215
12,AGAGTCTA,-0.229
13,CCCGGCAC,-0.379
14,CCCAAGTA,0.0186
15,CTAGCAGA,-0.183
16,AATCAAGG,0.188
17,CTGAGGGA,-0.15
18,GCAGTTTA,-0.0437
19,GTACGCAA,-0.0571
20,GGAGTGAA,0.17
21,GTGTCGGA,-0.12
22,TCATTCAA,0.176
23,AGGTGTTG,-0.0487
24,TAGAAGCA,-0.0211
25,ACCGCACC,-0.016

row,Sequence,PBM E-score
1,AACCATAA,0.152
2,AGCACCGC,-0.00696
3,AGCTGAAG,0.0392
4,CGAACCTC,-0.0419
5,AACGGTGC,-0.186
6,ACTGGGCC,-0.183
7,CCCAAACC,0.0865
8,CAATAATA,0.276
9,AAGTGGAA,0.147
10,CAGCCTTA,-0.252
11,CGTCCCCA,-0.0896
12,GGATTTGA,-0.0253
13,AAAGCACT,0.0393
14,AATACGCC,-0.0343
15,CTCTGCAC,-0.149
16,CCGCTATC,0.0551
17,AAAGCGAC,0.0683
18,ATAAAAAG,0.204
19,GGGAATAA,0.196
20,ACGGGGGA,-0.263
21,ACGACCCG,-0.0705
22,CCATCGCC,-0.118
23,CACGGTGC,-0.283
24,CCTATACA,0.032
25,CATTATCG,0.0028

# For reference, some entries already given:
row,Sequence,PBM E-score
17,AAAGCGAC,0.0683
18,ATAAAAAG,0.204
19,GGGAATAA,0.196

# (listing goes on)

row,Sequence,PBM E-score
1,ATCGGTCA,-0.0437
2,GACGGTTA,-0.116
3,GAATAATA,0.291
4,ACAAGGAT,0.065
5,CTACGTAC,-0.041
6,ACGGAACC,0.151
7,CTGGTGAA,-0.149
8,ATACACAT,0.204
9,GTACAGCA,-0.134
10,ACAGATAC,0.0834
11,AGGTTTTC,0.00375
12,ACCTTAAA,-0.0538
13,AATTCGGT,0.194
14,AGCCTAGG,-0.28
15,GGTATCAC,0.0115
16,GGCATCAC,-0.114
17,ACTTAATC,0.133
18,ACGATTGC,0.153
19,GTCACCTA,-0.196
20,GTCAGTCA,-0.0842
21,CTGTATAC,0.116
22,GCGCTGAC,0.187
23,CTGCACCC,-0.169
24,ATGACGGC,-0.0843
25,CGAGGAAA,0.0743

row,Sequence,PBM E-score
1,CTATTTTC,0.0963
2,CGCAGACA,0.0507
3,CATAGTGA,-0.0441
4,ATGGTCAA,0.128
5,CATCCCAG,-0.148
6,ATATTCCA,0.274
7,CATATACA,0.187
8,CTAGGTAC,-0.121
9,GGATGCCC,-0.237
10,ACCGAGCT,-0.0745
11,TCGTTGAA,-0.0113
12,AAATCCTC,-0.137
13,ATAACTCC,-0.086
14,AAGGTACA,-0.0396
15,CGCTAAAG,0.0272
16,AAAAGTCA,-0.0391
17,CAAAGAGA,-0.0122
18,ACTTGTGC,-0.0651
19,AGATATGC,0.0698
20,AAGCGTCC,-0.159
21,CAGCAGAG,-0.0898
22,GCTGGCCC,-0.269
23,CTTTACAC,0.0902
24,CGGCTAGA,-0.144
25,ACCGGACA,-0.157

# Some of the entries so far, with bars between the fields.
row | Sequence | PBM E-score
5 | CATCCCAG | -0.148
6 | ATATTCCA | 0.274

# Part of the list above, tab-delimited.
row	Sequence	PBM E-score
5	CTAATTCC	0.05
8	ATTGTGAC	0.0953
10	CAGCCTTA	-0.252
11	CGTCCCCA	-0.0896
6	ATATTCCA	0.274
17	CAAAGAGA	-0.0122

# More results:

row,Sequence,PBM E-score
1,ACGTGGAC,-0.0526
2,CAAAGCCC,-0.137
3,AGGAGTTG,-0.108
4,AACCTTCA,0.0563
5,AAGCATAT,0.13
6,AACAAGGT,0.00268
7,ATAAATTC,0.0845
8,CCGCACTC,0.147
9,AAGTCTAC,0.0186
10,GCCCCAGA,-0.212
11,CCACACCC,-0.0164
12,CATGATCG,0.088
13,CAGGCTAC,-0.00917
14,CGCATATC,0.247
15,CTGGTCAC,-0.107
16,TACTCCCA,0.0334
17,CATAACTC,-0.015
18,CAGGCAAC,-0.0103
19,AGCCTACC,-0.228
20,CGTGTCGA,-0.179
21,GCAATAAA,0.16
22,AATATACG,0.11
23,CGTACCGC,-0.0476
24,AACCGACA,0.038
25,CAATTTGG,0.0328

row,Sequence,PBM E-score
1,ACACGGGA,0.00195
2,GCTTGTCA,-0.0215
3,CTCCCACA,-0.169
4,CGGAATCA,0.27
5,CACGTATG,-0.0843
6,GGCCTTCA,-0.137
7,AAATGGAG,0.0584
8,ACCACCCT,-0.163
9,CTATGGGC,-0.051
10,ATCGGCAC,-0.00711
11,CCCCGCGC,-0.0233
12,GCCCGGGA,-0.128
13,AACACTTC,0.172
14,CCAAGTTC,0.0755
15,GTGTTCCA,-0.103
16,CGGCCCTA,-0.0802
17,GTAAACTA,0.132
18,GCCGCTCA,-0.13
19,GCACCAGC,-0.172
20,ACGGGAGG,-0.169
21,CAACGAAA,0.182
22,GTTAATCA,0.239
23,TCTTACAA,0.0121
24,ATTAGGAC,-0.115
25,AGTTGCGG,0.237

row,Sequence,PBM E-score
1,AGCCGTGA,0.05
2,ACGCCCTA,-0.261
3,ACAGTTAA,0.17
4,GCACCAAA,0.0873
5,ATCCAGAC,0.0041
6,AGAGGTGA,0.101
7,CTTAGTAC,0.0461
8,ATGGAACG,-0.00049
9,AGTTAATC,0.2
10,AGTCAACG,-0.0325
11,GAAAACAC,-0.0644
12,ATCTGACG,-0.00476
13,CGTATAAG,0.0145
14,ACGACAGC,0.0108
15,CGATTAAG,0.092
16,CACCCTAG,0.00459
17,AATAGATT,0.125
18,ATAATGTG,0.134
19,ATCGCATG,0.108
20,AATGTGGC,0.0846
21,AAGATACT,0.115
22,ACCCTCAG,0.0274
23,GCGAGCGA,0.0335
24,ATATTCTC,0.235
25,CATATGAC,-0.0298

row,Sequence,PBM E-score
1,GAGTTACA,0.232
2,CCCATATA,0.178
3,GGGACACA,0.0855
4,AGTGAAAC,0.118
5,CATTATGC,0.155
6,CCCATCCG,-0.0498
7,GAGCCACC,-0.354
8,ATGCAAAA,0.165
9,TCTGAAAA,0.0776
10,CATATAAA,0.138
11,CGGATCTC,-0.053
12,CATCACCG,0.0152
13,CTCTCGGA,0.0455
14,CCTCGAAC,-0.0958
15,GCACTTCA,0.094
16,GTAAGCCA,0.264
17,AAGCGGAA,0.2
18,CATCATGC,0.14
19,GACGCAAC,-0.163
20,AAGTCCAT,-0.091
21,ACAAGGTC,-0.041
22,ATCCATCC,0.0833
23,ATTTCTTG,0.133
24,CAACCCAC,0.0689
25,AACCCAAT,0.00173

row,Sequence,PBM E-score
1,CCCTGTAC,-0.116
2,CCTCGTGA,-0.128
3,ATTCACGG,-0.0451
4,AGCTAGTG,-0.0149
5,GTTAAGAA,-0.0647
6,AATGGACA,0.0126
7,TGTTATAA,0.24
8,GCGGAGAA,0.029
9,CGCAAGTA,0.109
10,AACCGAAC,-0.0782
11,CCGCTCGA,-0.0568
12,CCTGTCTA,-0.126
13,CGGTGAGC,-0.148
14,ATAGTGTC,0.0674
15,CAACTCCC,0.0769
16,AAGTTCAC,0.0299
17,CGCTTCGC,-0.133
18,CCTGGCGC,-0.0837
19,AGTTCACG,-0.149

# Source: the supplement of paper PMC3334620
